Data published in the supplement of paper PMC10849652.
This is one part of the list.

Protein sequences, listed by entry. Tags and fused reporters are not part of them. Lines headed by an entry give the natural chain unless they say otherwise; changes in a name come on top.
UniProt Q9Y3E5: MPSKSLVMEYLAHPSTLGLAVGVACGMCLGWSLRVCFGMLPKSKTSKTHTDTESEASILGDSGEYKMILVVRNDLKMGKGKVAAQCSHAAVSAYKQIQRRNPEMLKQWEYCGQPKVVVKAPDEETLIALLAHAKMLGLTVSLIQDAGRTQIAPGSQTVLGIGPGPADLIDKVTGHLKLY
UniProt P28074: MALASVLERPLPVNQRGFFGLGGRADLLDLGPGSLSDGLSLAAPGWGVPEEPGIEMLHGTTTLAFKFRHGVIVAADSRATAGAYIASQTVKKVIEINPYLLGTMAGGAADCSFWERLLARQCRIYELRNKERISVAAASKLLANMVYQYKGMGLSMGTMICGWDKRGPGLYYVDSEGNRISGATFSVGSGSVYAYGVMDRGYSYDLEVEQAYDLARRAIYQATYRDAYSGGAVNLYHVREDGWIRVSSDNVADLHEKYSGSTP
UniProt Q8N8N7: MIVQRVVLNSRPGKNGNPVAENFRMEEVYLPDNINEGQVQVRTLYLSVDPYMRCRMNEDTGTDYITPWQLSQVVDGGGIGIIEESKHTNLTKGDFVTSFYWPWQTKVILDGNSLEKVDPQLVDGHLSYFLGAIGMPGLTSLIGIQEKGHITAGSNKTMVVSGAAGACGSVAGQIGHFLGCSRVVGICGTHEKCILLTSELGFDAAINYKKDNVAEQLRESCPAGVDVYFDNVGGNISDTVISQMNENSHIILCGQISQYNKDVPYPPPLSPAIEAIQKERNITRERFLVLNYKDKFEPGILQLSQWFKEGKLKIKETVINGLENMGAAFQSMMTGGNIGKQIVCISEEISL
UniProt O00233: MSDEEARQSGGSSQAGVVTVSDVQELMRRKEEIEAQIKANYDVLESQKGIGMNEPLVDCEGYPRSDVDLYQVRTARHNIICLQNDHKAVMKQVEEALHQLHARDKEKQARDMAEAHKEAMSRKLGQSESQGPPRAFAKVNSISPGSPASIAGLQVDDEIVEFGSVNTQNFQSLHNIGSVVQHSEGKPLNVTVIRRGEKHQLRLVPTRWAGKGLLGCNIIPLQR
UniProt Q93096: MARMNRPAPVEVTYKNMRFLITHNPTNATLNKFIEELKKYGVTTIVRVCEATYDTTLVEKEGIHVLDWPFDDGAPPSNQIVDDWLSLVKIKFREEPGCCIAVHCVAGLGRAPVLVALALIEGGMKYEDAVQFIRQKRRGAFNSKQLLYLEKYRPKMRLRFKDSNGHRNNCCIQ
UniProt P11216: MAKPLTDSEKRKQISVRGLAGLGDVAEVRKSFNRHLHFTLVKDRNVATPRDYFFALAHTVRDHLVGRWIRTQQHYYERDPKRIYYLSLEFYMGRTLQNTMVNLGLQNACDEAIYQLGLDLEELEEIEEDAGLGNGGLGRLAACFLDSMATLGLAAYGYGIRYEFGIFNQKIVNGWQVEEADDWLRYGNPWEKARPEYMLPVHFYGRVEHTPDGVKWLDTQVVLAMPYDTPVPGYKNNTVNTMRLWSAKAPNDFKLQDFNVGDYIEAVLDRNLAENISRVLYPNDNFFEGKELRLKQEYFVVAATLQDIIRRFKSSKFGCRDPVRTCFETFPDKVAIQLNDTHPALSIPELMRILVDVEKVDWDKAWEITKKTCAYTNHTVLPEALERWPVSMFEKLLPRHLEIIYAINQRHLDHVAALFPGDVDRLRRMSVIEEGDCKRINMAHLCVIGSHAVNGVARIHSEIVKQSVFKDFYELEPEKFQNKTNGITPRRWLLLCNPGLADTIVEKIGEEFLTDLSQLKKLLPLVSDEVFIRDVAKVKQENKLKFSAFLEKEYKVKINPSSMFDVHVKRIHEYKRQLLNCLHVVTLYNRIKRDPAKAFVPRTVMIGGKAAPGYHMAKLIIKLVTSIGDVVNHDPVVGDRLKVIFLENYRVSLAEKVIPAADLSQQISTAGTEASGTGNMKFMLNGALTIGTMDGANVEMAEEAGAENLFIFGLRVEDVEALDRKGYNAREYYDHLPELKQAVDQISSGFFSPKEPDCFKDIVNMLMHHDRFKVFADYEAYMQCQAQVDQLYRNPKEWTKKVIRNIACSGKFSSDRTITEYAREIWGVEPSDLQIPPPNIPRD
UniProt O00231, whole entry, looked up: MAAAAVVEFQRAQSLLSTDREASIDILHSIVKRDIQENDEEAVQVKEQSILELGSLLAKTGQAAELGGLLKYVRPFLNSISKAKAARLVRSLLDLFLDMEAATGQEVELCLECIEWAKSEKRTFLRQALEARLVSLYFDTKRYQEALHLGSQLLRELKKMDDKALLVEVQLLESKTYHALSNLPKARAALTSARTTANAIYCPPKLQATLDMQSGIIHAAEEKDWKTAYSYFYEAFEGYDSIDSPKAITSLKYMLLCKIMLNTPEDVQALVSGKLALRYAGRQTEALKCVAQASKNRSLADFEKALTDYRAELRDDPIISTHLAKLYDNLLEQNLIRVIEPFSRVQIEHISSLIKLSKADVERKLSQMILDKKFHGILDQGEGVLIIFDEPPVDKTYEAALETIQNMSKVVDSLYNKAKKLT
UniProt Q9BZE2: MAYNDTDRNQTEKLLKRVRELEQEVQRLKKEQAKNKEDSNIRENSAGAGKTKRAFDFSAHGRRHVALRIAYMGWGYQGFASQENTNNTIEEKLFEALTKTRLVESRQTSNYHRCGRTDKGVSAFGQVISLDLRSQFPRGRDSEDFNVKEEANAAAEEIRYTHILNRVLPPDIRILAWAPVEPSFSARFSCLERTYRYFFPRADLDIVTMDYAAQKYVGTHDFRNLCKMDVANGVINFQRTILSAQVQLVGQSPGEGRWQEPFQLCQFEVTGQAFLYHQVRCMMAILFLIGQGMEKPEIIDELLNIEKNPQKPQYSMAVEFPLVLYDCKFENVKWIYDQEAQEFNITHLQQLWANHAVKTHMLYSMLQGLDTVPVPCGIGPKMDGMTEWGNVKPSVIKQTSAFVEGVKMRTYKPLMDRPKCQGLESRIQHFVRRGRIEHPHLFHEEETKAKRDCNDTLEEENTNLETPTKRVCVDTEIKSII
UniProt P06737: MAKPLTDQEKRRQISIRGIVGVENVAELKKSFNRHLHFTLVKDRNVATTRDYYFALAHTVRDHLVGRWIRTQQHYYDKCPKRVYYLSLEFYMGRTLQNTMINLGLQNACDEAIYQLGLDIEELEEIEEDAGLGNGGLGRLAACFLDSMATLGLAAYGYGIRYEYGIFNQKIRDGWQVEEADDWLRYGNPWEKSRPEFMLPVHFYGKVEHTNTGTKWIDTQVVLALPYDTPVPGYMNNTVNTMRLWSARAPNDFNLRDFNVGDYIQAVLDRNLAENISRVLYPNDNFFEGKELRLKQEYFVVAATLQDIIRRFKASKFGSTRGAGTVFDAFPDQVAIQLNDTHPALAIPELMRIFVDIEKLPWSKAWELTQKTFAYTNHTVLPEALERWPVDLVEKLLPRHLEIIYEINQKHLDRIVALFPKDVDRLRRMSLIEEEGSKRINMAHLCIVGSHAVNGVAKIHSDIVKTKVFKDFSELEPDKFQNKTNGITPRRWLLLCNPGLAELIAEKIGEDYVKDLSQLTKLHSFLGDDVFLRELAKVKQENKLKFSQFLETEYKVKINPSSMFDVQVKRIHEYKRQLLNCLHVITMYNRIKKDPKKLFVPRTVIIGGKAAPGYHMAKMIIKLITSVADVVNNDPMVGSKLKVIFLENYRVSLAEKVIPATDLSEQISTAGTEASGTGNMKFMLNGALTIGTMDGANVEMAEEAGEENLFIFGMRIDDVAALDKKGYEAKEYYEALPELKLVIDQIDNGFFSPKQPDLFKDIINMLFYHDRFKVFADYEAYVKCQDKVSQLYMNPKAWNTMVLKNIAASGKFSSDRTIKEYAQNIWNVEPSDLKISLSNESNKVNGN
UniProt O43242, whole entry, looked up: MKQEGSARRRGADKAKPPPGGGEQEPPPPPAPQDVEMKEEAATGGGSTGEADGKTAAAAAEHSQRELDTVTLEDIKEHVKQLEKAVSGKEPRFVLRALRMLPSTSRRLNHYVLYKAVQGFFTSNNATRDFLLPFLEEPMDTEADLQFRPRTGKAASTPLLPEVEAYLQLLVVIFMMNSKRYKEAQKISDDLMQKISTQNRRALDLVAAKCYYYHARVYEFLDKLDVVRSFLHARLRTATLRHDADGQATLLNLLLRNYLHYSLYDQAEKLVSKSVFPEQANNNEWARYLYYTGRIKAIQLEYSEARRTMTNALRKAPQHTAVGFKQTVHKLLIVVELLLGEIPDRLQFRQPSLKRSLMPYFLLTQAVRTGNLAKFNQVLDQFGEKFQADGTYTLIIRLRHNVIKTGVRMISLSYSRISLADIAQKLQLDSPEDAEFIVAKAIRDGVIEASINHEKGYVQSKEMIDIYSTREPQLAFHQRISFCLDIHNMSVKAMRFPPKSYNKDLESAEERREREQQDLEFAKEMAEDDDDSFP
UniProt Q6PGN9: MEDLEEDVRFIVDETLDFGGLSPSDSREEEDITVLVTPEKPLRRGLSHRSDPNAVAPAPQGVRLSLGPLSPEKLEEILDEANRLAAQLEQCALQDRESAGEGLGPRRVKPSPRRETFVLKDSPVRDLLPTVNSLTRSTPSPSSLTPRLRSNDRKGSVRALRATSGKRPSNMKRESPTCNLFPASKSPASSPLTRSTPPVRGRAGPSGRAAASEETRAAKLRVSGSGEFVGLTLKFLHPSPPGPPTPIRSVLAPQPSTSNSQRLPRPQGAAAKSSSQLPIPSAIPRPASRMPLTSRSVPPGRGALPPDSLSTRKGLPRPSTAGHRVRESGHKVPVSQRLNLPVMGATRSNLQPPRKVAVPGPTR
UniProt P28072: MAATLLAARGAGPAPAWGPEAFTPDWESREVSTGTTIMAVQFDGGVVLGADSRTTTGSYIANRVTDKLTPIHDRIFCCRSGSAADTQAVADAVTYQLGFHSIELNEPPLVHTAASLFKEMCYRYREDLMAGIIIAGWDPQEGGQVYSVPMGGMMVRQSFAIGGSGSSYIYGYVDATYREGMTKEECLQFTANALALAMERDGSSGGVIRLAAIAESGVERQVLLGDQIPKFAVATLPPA
UniProt Q96PU8: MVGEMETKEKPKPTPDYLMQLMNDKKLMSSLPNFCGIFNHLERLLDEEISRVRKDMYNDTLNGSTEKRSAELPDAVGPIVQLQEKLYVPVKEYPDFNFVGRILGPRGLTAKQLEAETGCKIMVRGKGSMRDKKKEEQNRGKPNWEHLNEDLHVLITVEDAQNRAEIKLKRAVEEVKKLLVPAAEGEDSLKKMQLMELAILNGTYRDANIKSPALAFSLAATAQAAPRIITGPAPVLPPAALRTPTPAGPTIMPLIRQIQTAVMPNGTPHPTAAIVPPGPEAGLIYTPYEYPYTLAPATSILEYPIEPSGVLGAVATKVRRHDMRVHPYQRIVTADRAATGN
UniProt Q9Y617: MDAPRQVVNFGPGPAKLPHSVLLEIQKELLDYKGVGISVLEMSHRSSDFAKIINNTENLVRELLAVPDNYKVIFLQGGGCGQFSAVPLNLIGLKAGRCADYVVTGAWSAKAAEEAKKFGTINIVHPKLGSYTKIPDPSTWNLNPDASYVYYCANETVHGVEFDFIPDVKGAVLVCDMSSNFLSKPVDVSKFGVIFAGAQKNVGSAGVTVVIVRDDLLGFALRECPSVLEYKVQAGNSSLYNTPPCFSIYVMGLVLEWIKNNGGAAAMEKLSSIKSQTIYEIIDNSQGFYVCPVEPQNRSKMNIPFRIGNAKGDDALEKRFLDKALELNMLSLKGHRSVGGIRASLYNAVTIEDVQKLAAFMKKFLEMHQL
UniProt Q05209: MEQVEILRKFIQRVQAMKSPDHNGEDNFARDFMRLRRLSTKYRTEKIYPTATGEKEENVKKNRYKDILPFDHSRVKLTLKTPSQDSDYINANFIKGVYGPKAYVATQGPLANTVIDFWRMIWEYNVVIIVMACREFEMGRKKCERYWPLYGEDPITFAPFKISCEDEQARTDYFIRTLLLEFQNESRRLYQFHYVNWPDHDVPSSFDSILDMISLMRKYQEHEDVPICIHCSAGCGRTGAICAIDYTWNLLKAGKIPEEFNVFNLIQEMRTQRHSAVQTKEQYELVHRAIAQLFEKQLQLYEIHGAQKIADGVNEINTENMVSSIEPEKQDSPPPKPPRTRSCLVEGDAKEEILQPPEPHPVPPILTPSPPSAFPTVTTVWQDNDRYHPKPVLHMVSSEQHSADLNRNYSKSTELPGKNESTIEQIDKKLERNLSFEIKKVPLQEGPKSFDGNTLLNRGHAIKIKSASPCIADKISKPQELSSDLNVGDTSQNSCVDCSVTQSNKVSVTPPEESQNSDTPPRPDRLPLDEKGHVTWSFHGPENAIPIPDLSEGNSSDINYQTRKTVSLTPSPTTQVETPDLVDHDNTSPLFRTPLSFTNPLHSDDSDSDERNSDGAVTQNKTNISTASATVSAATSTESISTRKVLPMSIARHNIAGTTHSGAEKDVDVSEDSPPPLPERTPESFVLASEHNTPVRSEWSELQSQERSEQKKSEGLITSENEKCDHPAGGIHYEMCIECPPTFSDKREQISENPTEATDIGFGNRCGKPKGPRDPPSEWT

How the values were obtained:
Assay in all cases: log2 fold change, soluble protein after heating vs DMSO (PISA); higher = thermal stabilisation; K562 cells, 10 uM, 30 min; active = over 0.2 and 3.5 SD of the protein, either way, in both replicates (recomputed)
bafetinib = compound: Cc1ccc(NC(=O)c2ccc(CN3CC[C@H](N(C)C)C3)c(C(F)(F)F)c2)cc1Nc1nccc(-c2cncnc2)n1 [bafetinib]
Method in brief: (§1)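 K562 cells at 2×10^6 cells/mL were treated with 10 μM compound for 30 min. Aliquots were heated for 3 min across 48°C-58°C, pooled, and extracted in PBS with 0.5% NP-40 at 4°C; soluble protein was the supernatant after 21,000xg for 90 min. Soluble protein was quantified by TMTpro 16plex LC-MS/MS with channel sums equalised, and reported as log2 fold change in thermal stability against DMSO controls, with values from duplicates.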

[1] = compound: Cc1cccc(CC(=O)N2CCc3c2ccc(-c2cn(C)c4ncnc(N)c24)c3F)n1
Method in brief: as §1

nilotinib = compound: Cc1cn(-c2cc(NC(=O)c3ccc(C)c(Nc4nccc(-c5cccnc5)n4)c3)cc(C(F)(F)F)c2)cn1 [nilotinib]
Method in brief: as §1

[2] = compound: Cc1nc(Nc2n[nH]c3c2CN(C(=O)N[C@H](CN(C)C)c2ccccc2)C3(C)C)c2sccc2n1
Method in brief: as §1

dasatinib = compound: Cc1nc(Nc2ncc(C(=O)Nc3c(C)cccc3Cl)s2)cc(N2CCN(CCO)CC2)n1 [dasatinib]
Method in brief: as §1

[3] = compound: Cc1ncc(-c2ccnc(Nc3ccc(S(C)(=O)=O)cc3)n2)n1C(C)C
Method in brief: as §1

[4] = compound: Cn1cc(-c2ccc3c(c2)CCN3C(=O)Cc2cccc(C(F)(F)F)c2)c2c(N)ncnc21
Method in brief: as §1

[5] = compound: Cn1cc(-c2ccc3nnc(C(F)(F)c4ccc5ncccc5c4)n3n2)cn1
Method in brief: as §1

tipifarnib = compound: Cn1cncc1[C@@](N)(c1ccc(Cl)cc1)c1ccc2c(c1)c(-c1cccc(Cl)c1)cc(=O)n2C [tipifarnib]
Method in brief: as §1

mubritinib = compound: FC(F)(F)c1ccc(/C=C/c2nc(COc3ccc(CCCCn4ccnn4)cc3)co2)cc1 [mubritinib]
Method in brief: as §1

Measured: log2 fold change

PSMB1 (UniProt P20618)
inactive: bafetinib 0.023 | [1] 0.133 | nilotinib 0.054 | [2] 0.036 | dasatinib 0.023 | [3] 0.005 | [4] -0.03 | [5] -0.026 | tipifarnib 0.008 | mubritinib -0.03

PUM1 isoform 3 (UniProt Q14671)
inactive: bafetinib -0.062 | [1] 0.006 | nilotinib -0.047 | [2] -0.066 | dasatinib -0.044 | [3] -0.014 | [4] 0.01 | [5] 0 | tipifarnib -0.015 | mubritinib 0.007

PTRH2 (UniProt Q9Y3E5)
inactive: bafetinib -0.022 | [1] 0.017 | nilotinib 0.039 | [2] -0.011 | dasatinib -0.004 | [3] 0.046 | [4] 0.044 | [5] -0.019 | tipifarnib 0.042 | mubritinib -0.009

PYCR1 (UniProt J3QKT4)
inactive: bafetinib -0.044 | [1] -0.263

PSMB5 (UniProt P28074)
inactive: bafetinib 0.142 | [1] 0.015 | nilotinib -0.006 | [2] 0.043 | dasatinib 0.029 | [3] 0.005 | [4] -0.04 | [5] -0.023 | tipifarnib -0.012 | mubritinib -0.014

PXMP4 (UniProt Q9Y6I8)
inactive: bafetinib -0.093 | [1] -0.01 | nilotinib 0 | [2] -0.008 | dasatinib -0.001 | [3] -0.014 | [4] 0.054 | [5] 0.054 | tipifarnib 0.143 | mubritinib 0.002

PSMD8 (UniProt P48556)
inactive: bafetinib 0.089 | [1] -0.013 | nilotinib 0.039 | [2] 0.054 | dasatinib 0.029 | [3] -0.031 | [4] -0.07 | [5] 0.009 | tipifarnib 0.117 | mubritinib -0.032

PTGR2 (UniProt Q8N8N7)
inactive: bafetinib 0.084 | [1] -0.151 | nilotinib 0.003 | [2] -0.215 | dasatinib -0.025 | [3] 0.07 | [4] 0.112 | tipifarnib 0.184 | mubritinib -0.066
active: [5] 0.485

PSMD10 (UniProt O75832)
inactive: bafetinib 0.026 | [1] 0.029 | nilotinib -0.013 | [2] -0.019 | dasatinib -0.094 | [3] 0.029 | [4] -0.015 | [5] 0.01 | tipifarnib -0.054 | mubritinib 0.047

PSMD9 (UniProt O00233)
inactive: bafetinib -0.038 | [1] 0.199 | nilotinib -0.011 | [2] 0.016 | dasatinib 0.037 | [3] 0.008 | [4] 0.018 | [5] 0.034 | tipifarnib 0.04 | mubritinib 0.009

PSMA7 (UniProt O14818)
inactive: bafetinib 0.027 | [1] -0.042 | nilotinib 0.02 | [2] 0.03 | dasatinib 0.078 | [3] -0.016 | [4] -0.035 | [5] 0.007 | tipifarnib 0.072 | mubritinib 0.004

PTPRC (UniProt P08575)
inactive: bafetinib 0.002 | [1] -0.011 | nilotinib 0.056 | [2] -0.044 | dasatinib 0 | [3] 0 | [4] 0.068 | [5] 0.017 | tipifarnib 0.015 | mubritinib 0.045

PTP4A1 (UniProt Q93096)
active: [3] -0.299
inactive: bafetinib -0.023 | [1] 0.013 | nilotinib 0.039 | [2] -0.049 | dasatinib 0.108 | [4] 0.181 | [5] 0.093 | tipifarnib -0.005 | mubritinib 0.074

PTGES2 (UniProt Q9H7Z7)
inactive: bafetinib -0.055 | [1] 0.005 | nilotinib 0.048 | [2] 0 | dasatinib 0.017 | [3] -0.036 | [4] 0.042 | [5] 0.048 | tipifarnib -0.03 | mubritinib 0.052

PYGB (UniProt P11216)
active: bafetinib -0.317 | nilotinib -0.358
inactive: [1] 0 | [2] 0.02 | dasatinib -0.042 | [3] -0.032 | [4] 0.026 | [5] -0.007 | tipifarnib 0.035 | mubritinib 0.014

PSMB3 (UniProt P49720)
inactive: bafetinib 0.056 | [1] -0.008 | nilotinib -0.008 | [2] 0.053 | dasatinib 0.051 | [3] -0.023 | [4] -0.059 | [5] 0.015 | tipifarnib 0.039 | mubritinib 0.007

Taken from the entries so far (2 entries):
PTP4A1 (UniProt Q93096)
active: [3] -0.299
inactive: bafetinib -0.023 | [1] 0.013 | nilotinib 0.039 | [2] -0.049 | dasatinib 0.108 | [4] 0.181 | [5] 0.093 | tipifarnib -0.005 | mubritinib 0.074

PTGES2 (UniProt Q9H7Z7)
inactive: bafetinib -0.055 | [1] 0.005 | nilotinib 0.048 | [2] 0 | dasatinib 0.017 | [3] -0.036 | [4] 0.042 | [5] 0.048 | tipifarnib -0.03 | mubritinib 0.052

Continuation:

PSMD11 (UniProt O00231)
inactive: bafetinib 0.15 | [1] 0.042 | nilotinib 0.054 | [2] 0.068 | dasatinib -0.004 | [3] -0.014 | [4] -0.074 | [5] -0.043 | tipifarnib -0.021 | mubritinib -0.054

PXN (UniProt P49023)
inactive: bafetinib -0.029 | [1] -0.07 | nilotinib 0.017 | [2] 0 | dasatinib 0.022 | [3] -0.011 | [4] 0.017 | [5] -0.072 | tipifarnib 0.034 | mubritinib 0.013

PUS3 (UniProt Q9BZE2)
inactive: bafetinib -0.003 | [1] 0 | nilotinib -0.062 | [2] 0.065 | dasatinib -0.075 | [3] -0.062 | [4] 0.078 | [5] -0.027 | tipifarnib -0.046 | mubritinib 0.037

PYGL (UniProt P06737)
inactive: bafetinib -0.218 | [1] 0.006 | nilotinib -0.202 | [2] 0.036 | dasatinib -0.027 | [3] -0.035 | [4] 0.001 | [5] -0.005 | tipifarnib 0.016 | mubritinib 0.052

PSMD3 (UniProt O43242)
inactive: bafetinib 0.129 | [1] 0.032 | nilotinib 0.008 | [2] 0.089 | dasatinib 0.004 | [3] -0.012 | [4] -0.064 | [5] -0.018 | tipifarnib 0.025 | mubritinib -0.019

PSRC1 (UniProt Q6PGN9)
inactive: bafetinib 0.045 | [1] 0.013 | nilotinib -0.005 | [2] -0.052 | dasatinib 0.048 | [3] -0.057 | [4] 0.027 | [5] -0.025 | tipifarnib 0.017 | mubritinib 0.023

PSMB6 (UniProt P28072)
inactive: bafetinib 0.06 | [1] -0.053 | nilotinib 0.028 | [2] 0.049 | dasatinib 0.098 | [3] -0.011 | [4] -0.068 | [5] -0.027 | tipifarnib 0.125 | mubritinib -0.014

QKI (UniProt Q96PU8)
inactive: bafetinib -0.001 | [1] 0.058 | nilotinib -0.015 | [2] -0.105 | dasatinib -0.029 | [3] -0.093 | [4] -0.007 | [5] -0.036 | tipifarnib -0.015 | mubritinib 0.003

PUS10 (UniProt Q3MIT2)
inactive: bafetinib 0.011 | [1] -0.026 | nilotinib 0.071 | [2] 0.006 | dasatinib -0.063 | [3] -0.078 | [4] 0.059 | [5] -0.026 | tipifarnib -0.007 | mubritinib -0.059

PSMD7 (UniProt P51665)
inactive: bafetinib 0.075 | [1] 0.009 | nilotinib 0.014 | [2] 0.065 | dasatinib 0.054 | [3] -0.033 | [4] -0.116 | [5] -0.01 | tipifarnib 0.079 | mubritinib 0.019

PSAT1 (UniProt Q9Y617)
inactive: bafetinib -0.042 | [1] -0.015 | nilotinib 0.03 | [2] 0.004 | dasatinib 0.058 | [3] -0.004 | [4] -0.006 | [5] 0.007 | tipifarnib -0.014 | mubritinib 0.027

PTPN12 (UniProt Q05209)
inactive: bafetinib -0.052 | [1] 0.008 | nilotinib -0.022 | [2] -0.122 | dasatinib -0.059 | [3] 0.074 | [4] -0.116 | [5] -0.086 | tipifarnib -0.081 | mubritinib 0.021
